In paper PMC5994430, “Mitochondrial Delivery of Phenol Substructure Triggers Mitochondrial Depolarization and Apoptosis of Cancer Cells” (Frontiers in Pharmacology, 2018):

Assays:
A549 cells = assay: Cell viability (neutral red); assay type: cell-based, Human; settings: normal lung epithelium vs lung cancer
Description: Human colon cancer HT29 cells, colon-derived normal fibroblast CCD-18Co cells, lung cancer A549 cells, normal human bronchial epithelial (immortalized with adenovirus 12-SV40 virus hybrid Ad12SV40) BEAS-2B cells, breast cancer MDA-MB-231 cells, normal breast epithelial MCF10A cells, human osteosarcoma U-2OS cells were purchased from ATCC (Manassas, VA, United States). […] All subjects gave written informed consent in accordance with the Declaration of Helsinki. Cells were maintained in medium supplemented with 10% v/v fetal bovine serum, 1% v/v penicillin-streptomycin, 1% v/v L-glutamine. Morphological analysis was performed with a bright field microscope (Leica Microsystems, Wetzlar, Germany). […]
LDH activity was measured in the extracellular medium and in the cell lysate: 50 μl of extracellular medium or 5 μl of cell lysate were incubated at 37°C with 5 mM NADH. The reaction was started by adding 20 mM pyruvic acid and was monitored for 6 min, measuring absorbance at 340 nm using a Synergy HT Multi-Detection Microplate Reader (Bio-Tek Instruments, Winoosky, MT, United States). […] Both intracellular and extracellular enzyme activities were expressed as μmol NADH oxidized/min/dish. The results were expressed as percentage of extracellular LDH versus total (intracellular plus extracellular) LDH. […] IC50 was calculated with the CompuSyn software^1.

U-2OS cells = assay: Cell viability (neutral red), IC50; assay type: cell-based, Human; settings: normal osteoblasts vs osteosarcoma

Row | SMILES | ratio between the IC50 in BEAS-2B cells and A549 cells (A549 cells) | ratio between the IC50 in osteoblasts and U-2OS cells (U-2OS cells)
1 | CC(=O)Oc1ccc(C[P+](c2ccccc2)(c2ccccc2)c2ccccc2)cc1.[Br-] [Compound 1] | 16.97 | 14.36
2 | O=C(Oc1ccc(C[P+](c2ccccc2)(c2ccccc2)c2ccccc2)cc1C(F)(F)F)c1ccccc1.[Br-] [Compound 2] | 13.38 | 5.41
